From article doi:10.1101/2025.05.29.656301
No constants are given. Whether binding was seen depends on the method and setting. Binding seen in cells or lysates may run through a third protein. Some results given as binding are weak or reduced against the parent protein; the word gives no strength. For some assays here: Where a sequence is shown, tags or fusion partners need not be part of it.

The chains behind the UniProt entries cited, without tags or fusion partners.
UniProt P61586: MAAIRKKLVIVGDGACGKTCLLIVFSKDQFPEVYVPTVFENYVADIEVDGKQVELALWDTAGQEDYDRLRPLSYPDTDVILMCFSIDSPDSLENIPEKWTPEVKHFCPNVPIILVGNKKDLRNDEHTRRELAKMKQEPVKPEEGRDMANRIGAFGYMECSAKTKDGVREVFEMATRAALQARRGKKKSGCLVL

Assays:
[1] = target: T1, CD20 (endogenous) (human (endogenous in Ramos and healthy donor B cells)) (UniProt P11836); assay: proximity ligation
T1 sequence: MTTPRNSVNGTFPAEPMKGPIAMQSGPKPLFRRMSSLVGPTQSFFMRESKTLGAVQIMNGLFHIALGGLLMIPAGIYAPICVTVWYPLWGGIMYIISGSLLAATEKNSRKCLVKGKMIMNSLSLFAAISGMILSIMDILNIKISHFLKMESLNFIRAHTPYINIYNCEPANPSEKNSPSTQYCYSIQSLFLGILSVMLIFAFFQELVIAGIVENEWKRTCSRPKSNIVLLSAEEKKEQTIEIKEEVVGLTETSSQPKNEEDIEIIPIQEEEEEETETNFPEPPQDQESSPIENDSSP

[2] = target: T2, CD20 WT with C-terminal flag-tag (human) (UniProt P11836); assay: proximity ligation
T2 sequence: T1 sequence

- binding [1]: binds
- binding [2]: binds
Substance: RhoA (endogenous) (from UniProt P61586 1-193)
